Source: PubChem BioAssay AID2685 (National Center for Advancing Translational Sciences (NCATS), 2010)
About 2,100 (0.66%) of roughly 320,000 compounds were called active. Inconclusive means that the source gave no clear call. Such entries were picked first, then a sample of the others. Calls come from the whole dose curve; as a rule, active = well fitted inhibition curve with a large enough effect in the signal ratio, with a control signal flat (not every such curve was filed as active); inconclusive = small, poorly fitted or top-dose-only effect, or effect the other way, or a change in a side signal; inactive = flat fitted curve, though single readings scatter; the % refers to the signal ratio. Where the call is inconclusive, the potency comes from a doubtful curve fit.

experiment: qHTS Assay for Lipid Storage Modulators in Drosophila S3 Cells; conditions: BODIPY lipid droplet fluorescence, 18-24 h, cells fed with added oleic acid; lipid storage change, negative = inhibition: at 46.1 µM (top of the series) unless noted
Summary of the method: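 Drosophila S3 cells got compounds at several concentrations plus oleic acid (400 uM solution). Laser-scanning cytometry with 488 nm excitation read lipid droplets at 500-530 nm and cells at 575-640 nm. Percent activity was relative to 20 uM Triacsin C.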
% is set by controls: 0 for no effect and ±100 for the full control effect; potency is the fitted concentration of half-maximal effect.

| SMILES | lipid storage change, negative = inhibition | Potency |
| --- | --- | --- |
| Cc1ccccc1NC(=O)c1cn2c(nc3ccccc32)c(C#N)c1C | inconclusive: 23.5% | – |
| O=C(CSc1nc(-c2ccccc2)cs1)NCCN1C(=O)CSC1=O | inconclusive: 31.1% | – |
| COc1ccc(C2CC(c3ccc(C)cc3)Nc3nc(N)nn32)cc1 (stereo not given) | – | inconclusive: 3.26 µM [activator, single point] |
| Cn1c(Cn2c(=O)sc3ccccc32)nnc1SCc1ccccn1 | inconclusive: -19.8% | – |
| CC(C)(C)C(=O)N/C(N)=N/c1nc2ccccc2o1 | inconclusive: -31.9% | – |
| CCC(=O)Nc1cccc2ccccc12 | – | inconclusive: 0.58 µM [falling, full curve, poor fit] |
| COc1ccc(NS(=O)(=O)c2cccc(-c3nnc4n3CCCCC4)c2)cc1 | inconclusive: 17.4% | – |
| COc1ccc(S(=O)(=O)N(C)C)cc1NC(=O)COC(=O)CC1CCCC1 | – | inconclusive: 0.517 µM [activator, single point] |
| O=C(c1cccnc1NCc1ccc(F)cc1)N1CCOCC1 | inconclusive: 2.71% | – |
| O=C1c2ccccc2-c2nnc(-c3ccc(F)cc3)cc21 | inconclusive: -36.9% | – |
| CSc1sc(-c2n[nH]c(=S)n2C)c2c1C=CCC2 | inconclusive: 16.4% | – |
| COc1cccc(OCc2cc(C(=O)N3CCN(c4ccccc4OC)CC3)no2)c1 | inconclusive: 20.1% | – |
| CCc1nc(SCC(=O)Nc2c(C)n(C)n(-c3ccccc3)c2=O)n[nH]1 | inconclusive: -34.3% | – |
| Cc1ccc(NS(=O)(=O)c2cccc(C(=O)NCCCN3CCOCC3)c2)cc1 | inconclusive: 36.8% | – |
| Cc1onc(C(=O)N2CCC(C(N)=O)CC2)c1-c1ccccc1Cl | inconclusive: 8.81% | – |
| CC(C)(CNC(=O)CCC1CCCC1)CNC(=O)CCC1CCCC1 | – | inconclusive: 29.1 µM [falling, single point] |
| COc1cccc(N(C(=O)c2sc(C)nc2C)C(C(=O)NCC2CCCO2)c2ccccc2)c1 (stereo not given) | inconclusive: 15.7% | – |
| O=C(COC(=O)Cc1c[nH]c2ccccc12)NCCc1ccccc1 | inconclusive | – |
| CCN1CCCC1CNS(=O)(=O)c1cccc(C(F)(F)F)c1 (stereo not given) | – | inconclusive: 2.31 µM [falling, partial curve, poor fit] |
| NNC(=O)c1cc(S(=O)(=O)N2CCOCC2)c[nH]1 | inconclusive: 4.48% | – |
| CCOc1ccccc1C(=O)NC(CO)C(=O)O (stereo not given) | – | active: 20.6 µM |
| COc1ccc(Cn2c(=N)c(C(=O)NCC3CCCO3)cc3c(=O)n4ccccc4nc32)cc1 (stereo not given) | inconclusive: -23.9% | – |
| CCOC(=O)C1=C(C)NC(C)=C(C(=O)OCC)C1C(=O)OCC(=O)N1CCCCC1CC (stereo not given) | – | inconclusive: 9.2 µM [activator, partial curve] |
| c1ccc(-c2csc(-c3ccc(-c4csnn4)cc3)n2)cc1 | inconclusive: -8.59% | – |
| CC1CN(C(=O)CCC(=O)N2CCN(c3ccccn3)CC2)c2ccccc2O1 (stereo not given) | inconclusive: -13.7% | – |
| CCCC(CCC)C(=O)Nc1cccc(C(=O)O)c1 | – | inconclusive: 29.1 µM [activator, single point] |
| O=C(CSc1ccccc1)Nc1ccc(NC(=O)c2ccco2)cc1 | inconclusive: -6.02% | – |

Looked up above.
Value of O=C(CSc1nc(-c2ccccc2)cs1)NCCN1C(=O)CSC1=O under lipid storage change, negative = inhibition: inconclusive: 31.1%
Value of CC(C)(CNC(=O)CCC1CCCC1)CNC(=O)CCC1CCCC1 under Potency: inconclusive: 29.1 µM [falling, single point]
Value of COc1ccc(Cn2c(=N)c(C(=O)NCC3CCCO3)cc3c(=O)n4ccccc4nc32)cc1 (stereo not given) under lipid storage change, negative = inhibition: inconclusive: -23.9%
Value of O=C1c2ccccc2-c2nnc(-c3ccc(F)cc3)cc21 under lipid storage change, negative = inhibition: inconclusive: -36.9%
Value of NNC(=O)c1cc(S(=O)(=O)N2CCOCC2)c[nH]1 under lipid storage change, negative = inhibition: inconclusive: 4.48%
Value of O=C(CSc1ccccc1)Nc1ccc(NC(=O)c2ccco2)cc1 under lipid storage change, negative = inhibition: inconclusive: -6.02%

More compounds.

| SMILES | lipid storage change, negative = inhibition | Potency |
| --- | --- | --- |
| C#CCOc1ccc(/C=C2/C(=O)ON=C2C)cc1Br | – | inconclusive: 25.9 µM [falling, single point] |
| CN(C)S(=O)(=O)c1ccc(C(=O)OCc2nnc(-c3ccccc3)o2)cc1 | inconclusive: -22.9% | – |
| Cc1ccc(-c2nn(C)c(=O)c3ccccc23)cc1CNC(=O)/C=C/c1ccccc1 | inactive | – |
| Cc1ccc(-n2c(SCC(=O)N3CCCc4ccccc43)nnc2-c2cccnc2)c(C)c1 | inconclusive: -38.4% | – |
| COc1ccc(OC)c(CN2CCN(CC(=O)Nc3ccccc3C(=O)NC3CC3)CC2)c1 | – | inconclusive: 9.2 µM [activator, partial curve, poor fit] |
| COc1ccc(C2C(C(=O)NCCN(C)C)c3cc(OC)c(OC)cc3C(=O)N2C)cc1OC (stereo not given) | inconclusive: 33.3% | – |
| CCOc1ccc(NC(=O)CNS(=O)(=O)c2c(C)cc(C)cc2C)cc1 | – | active: 0.92 µM |
| CCOc1ccccc1Nc1cc(C)c2cccc(C)c2n1 | inconclusive: -72.1% | – |
| S=c1[nH]c2cc3c(cc2[nH]1)OCCO3 | inconclusive: -15% | – |
| CC(OC(=O)c1ccccc1C(=O)N(C)C1CCCCC1)C(=O)NC1(C#N)CCCCC1 (stereo not given) | inconclusive: -20.6% | – |
| N#C/C(=C\c1c(N2CCCCCC2)nc2ccccn2c1=O)C(=O)NCc1ccco1 | inconclusive: 3.58% | – |
| COc1cccc2cc(C(=O)OCc3ccccc3)c(=O)oc12 | – | active: 1.46 µM |
| O=C(NCCN1CCN(Cc2ccccc2)CC1)c1cc2c(=O)[nH]c3ccccc3c2s1 | – | inconclusive: 3.26 µM [activator, single point] |
| C/C(CC(=O)Nc1ccc(Cl)cc1Cl)=N\NC(N)=S | inconclusive: -27.1% | – |
| COc1ccc(-c2nn(-c3ccccc3)cc2CNC(=O)c2cccc([N+](=O)[O-])c2)cc1 | inconclusive: -41.2% | – |
| Cc1cc(C(=O)CCC(=O)N2CCN(c3ccccc3F)CC2)c(C)s1 | – | inconclusive: 3.26 µM [activator, single point] |
| COC(=O)c1c(NC(=O)Cc2cccs2)sc(C(=O)N2CCCCC2)c1C | inconclusive: -14.4% | – |
| COc1cc(OC)cc(C(=O)NNC(=S)NC2CC2)c1 | inconclusive: 8% | – |
| COc1cc(/C(C)=N\NC(=O)CSc2nc3ccccc3n2C)ccc1O | inconclusive: 32.5% | – |
| CC(=O)N1CCc2cc(S(=O)(=O)NCCC(=O)NC3CCCCCC3)ccc21 | – | inconclusive: 29.1 µM [activator, single point] |
| COc1ccc(C2NC(=O)NC(C)=C2C(=O)OC2CCCC(C)C2)cc1 (stereo not given) | inconclusive: -11.9% | – |
| CCN(C1CCCCC1)S(=O)(=O)c1ccc(OC)c(C)c1 | inconclusive: -13.2% | – |
| Cn1c(CNC(=O)CNC(=O)Cc2ccc(F)cc2)cc(=O)n(C)c1=O | inconclusive: 55.5% | – |
| CC(C)(C)NC(=O)C(c1cccs1)N(Cc1cccs1)C(=O)c1ccc(CN2CCOCC2)o1 (stereo not given) | inconclusive: 9.39% | – |
| Cc1cc(C)cc(C(=O)N2CCCCCC2)c1 | inconclusive: -14.4% | – |
| CCOc1ccc(CCNC(=O)CCCn2c(=O)c3cccn3c3cccnc32)cc1OCC | inconclusive: -30.1% | – |
| CO/N=C/NC(=O)c1c(OC)ccnc1Oc1ccc(Cl)cc1 | inconclusive: 0.308% | – |

| SMILES | lipid storage change, negative = inhibition | Potency |
| --- | --- | --- |
| COc1ccc(NC(=O)CSc2nccc(C)n2)cc1 | – | inconclusive: 2.91 µM [activator, partial curve] |
| O=C(CSc1n[nH]c(=O)[nH]c1=O)c1ccccc1[N+](=O)[O-] | inconclusive: -18.9% | – |
| CCc1cc(C(=O)N2CCN(S(=O)(=O)c3ccc(Cl)cc3)CC2)sc1C | – | active: 11.6 µM |
| COc1cccc(NC(=O)Nc2nnc(Cc3ccccc3)s2)c1 | – | inconclusive: 3.66 µM [falling, full curve] |
| Cc1ccccc1C(=O)NCC(=O)OC(C)C(=O)NCc1ccco1 (stereo not given) | inconclusive | – |
| CC(C)(C)NC(=O)C(c1ccco1)N(Cc1ccc2c(c1)OCO2)C(=O)Cn1nnc2ccccc21 (stereo not given) | – | inconclusive: 0.231 µM [activator, full curve, poor fit] |
| Cc1ccc2nc(NS(C)(=O)=O)sc2c1 | – | inconclusive: 3.66 µM [falling, single point] |
| Cc1sc2ncnc(N3CCC(C(=O)Nc4nnc(CC(C)C)s4)CC3)c2c1C | inconclusive: 54.3% | – |
| CC(C(=O)Nc1ccccc1)N(C)CCOc1ccc(Br)cc1 (stereo not given) | inconclusive: 19.4% | – |
| NS(=O)(=O)c1ccc(CNC(=O)c2cc(=O)c3cc(Cl)ccc3o2)cc1 | inactive | – |
| Cc1ccc(COC(=O)CN2C(=O)NC3(CCCCC3C)C2=O)cc1 (stereo not given) | inconclusive: -14.4% | – |
| Cc1ccc(NC(=O)c2cc(=O)c3ccccc3o2)cc1 | inconclusive: -44.5% | – |
| COc1ccc(Nc2ccccc2)c(C)c1 | inconclusive: 47.9% | – |
| CCN(C(=O)COC(=O)c1cc(=O)c2ccccc2o1)c1c(N)n(Cc2ccccc2)c(=O)[nH]c1=O | inactive | – |
| CN1CC(c2ccccc2)C(c2ccc(Cl)cc2)=N1 (stereo not given) | – | inconclusive: 0.82 µM [falling, full curve, poor fit] |
| Cc1nc(-c2cc(-c3ccc(Cl)cc3)no2)cs1 | inconclusive: 32.2% | – |
| CCOC(=O)NC(CC(=O)O)c1ccc(OC)cc1 (stereo not given) | inconclusive: -9.72% | – |
| Cc1ccc(NC(=O)c2ccc3c(c2)C(=O)N(Cc2cccnc2)C3=O)c(C)c1 | inconclusive: 6.37% | – |
| Cc1cccc(N=Nc2c(C)nn(-c3ccccc3)c2N)c1C | – | inconclusive: 2.06 µM [activator, partial curve] |
| CNC(=S)NC1CC2CCCC(C1)N2Cc1ccc(C)cc1 (stereo not given) | inconclusive: -31.5% | – |
| O=C(c1cc(COc2c(F)cccc2F)on1)N1CCN(C2CCCCC2)C(=O)C1 | – | inconclusive: 0.92 µM [falling, full curve, poor fit] |
| CC(C)n1nnnc1-c1ccc(Cl)cc1 | inconclusive: -16.8% | – |
| CSc1ccc(CCNC(=O)CCc2nnc3ccc(N4CCOCC4)nn23)cc1 | – | inconclusive: 20.6 µM [falling, single point] |
| Cc1ccc(S(=O)(=O)N(C)c2ccc(C(=O)O)cc2)cc1 | inconclusive: -7.58% | – |
| CC(C)C(C(=O)NC(C)(C)C)N1C(=O)c2ccccc2C1=O (stereo not given) | inconclusive: 47.3% | – |
| Cc1ccc(NC(=O)CN2CCc3ccccc3C2)cc1S(=O)(=O)N1CCOCC1 | inconclusive: 14.5% | – |
